Measured values: the supplement of paper PMC3334620
Whole data set: some 33,000 sequences, median “E-score (-0.5 to 0.5)” near -8e-05, cut for the highest 2% near 0.23. The list shows a part of the results.

target: T1, Nrg2 (UniProt P38082); test: PBM E-score (8-mer binding enrichment) (E-score (-0.5 to 0.5)); higher = stronger / more preferred TF binding; details: protein concentration: 100 nM; construct: GST-full length
T1 sequence: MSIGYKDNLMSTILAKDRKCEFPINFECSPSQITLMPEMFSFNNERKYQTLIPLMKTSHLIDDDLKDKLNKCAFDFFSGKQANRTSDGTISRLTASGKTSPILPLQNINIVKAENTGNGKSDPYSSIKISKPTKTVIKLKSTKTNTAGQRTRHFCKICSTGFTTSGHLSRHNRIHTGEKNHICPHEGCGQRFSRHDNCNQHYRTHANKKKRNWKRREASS
In short: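 Yeast transcription factors carrying a GST tag, as full-length proteins or DNA-binding domains, were produced by PURExpress in vitro transcription/translation. About 100-200 nM protein was applied to universal all-10-mer Agilent arrays, double-stranded by primer extension on fresh or once-stripped slides. Bound protein was detected with fluorescent anti-GST, and scans were normalised with masliner. The Universal PBM Analysis Suite gave each ungapped eight-base word, pooled with its reverse complement, an E-score, a modified Wilcoxon-Mann-Whitney statistic.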

Row | Sequence | PBM E-score
1 | CATTATTA | 0.184
2 | CAGAACGC | 0.0404
3 | GAACCCGA | 0.0992
4 | GCACTACC | 0.186
5 | AAAAGAAA | 0.11
6 | ACAGTCGA | -0.099
7 | AAGCAGCG | -0.0162
8 | GCAATCCC | 0.0887
9 | GAATGAAC | 0.125
10 | AGGTAACA | 0.0822
11 | CGACAAAG | 0.196
12 | AAGTTTTC | 0.0514
13 | ATTCCTGC | 0.108
14 | CGCGAACC | -0.0708
15 | CTGTTCTC | -0.0276
16 | CAAATCTA | 0.101
17 | CCCTCGGC | 0.00288
18 | GAGTCTCC | -0.178
19 | GCAAACAC | 0.0152
20 | AAAGTCCT | -0.025
21 | ACGCAAAG | -0.0386
22 | ACGACTTG | -0.188
23 | GTGTCTAA | -0.131
24 | GTCCTATA | -0.0387
25 | AAGGGAGT | -0.163

Row | Sequence | PBM E-score
26 | CATGAAGA | -0.0544
27 | AAATGCAA | -0.0186
28 | CGACGATA | -0.0469
29 | AACGTGGA | 0.011
30 | AGACGAAG | -0.0592
31 | AGGTAATC | 0.0928
32 | ATTCCGGG | 0.104
33 | CGCGTATC | 0.051
34 | AGTTCTGA | 0.00934
35 | CAACTTCA | -0.0159
36 | TGGGAACA | 2e-05
37 | ATAAGACA | -0.0576
38 | AAAGGGCA | -0.042
39 | CTGCTTAC | -0.00953
40 | ACAACAGC | 0.0433
41 | AGCCCACG | -0.109
42 | ATCAATCC | 0.181
43 | CCGTCGAA | -0.0955
44 | ACGAGGTA | 0.0253
45 | AAATATTA | 0.247
46 | GTGGACAC | -0.11
47 | CCCCATAG | -0.113
48 | CAACAATG | 0.168
49 | CGTTCCCA | -0.174
50 | CATATTTC | -0.0462

Row | Sequence | PBM E-score
51 | CCGATTGC | 0.0444
52 | AGCATCAG | -0.0252
53 | ATAGTCCA | 0.139
54 | CTTGAAAG | -0.0754
55 | CTATAGGC | -0.156
56 | GCGCGAGC | 0.0479
57 | CCACCGAG | -0.0186
58 | GGGCAACC | -0.0673
59 | ACTTGTAT | 0.0894
60 | ACACTATG | 0.0263
61 | AGCTCAAG | -0.187
62 | CCGCAAAC | 0.0396
63 | TACCCAAA | 0.058
64 | CTCACTCC | -0.165
65 | CTGAGTTC | 0.165
66 | GGGGTGAC | -0.0804
67 | GCACGCGA | 0.0938
68 | CTAAGTCC | -0.0517
69 | AAATGCTG | 0.0535
70 | AGCGATGG | -0.0464
71 | CTCAGTAA | -0.137
72 | CTGGCCGC | -0.00936
73 | GAATAAGA | -0.00457
74 | CTTGGTGA | -0.0195
75 | CCTGAGTA | 0.0982

As a short view, part of the list above:
Row | Sequence | PBM E-score
43 | CCGTCGAA | -0.0955
44 | ACGAGGTA | 0.0253
45 | AAATATTA | 0.247
46 | GTGGACAC | -0.11

Continued:

Row | Sequence | PBM E-score
76 | AATTAAGC | 0.115
77 | AAGCCAAA | -0.0721
78 | ACGTTGAG | -0.101
79 | AACTATGC | 0.157
80 | CTTTAACC | -0.0797
81 | CCGGAAGG | -0.0304
82 | TAGAATAA | -0.0123
83 | ATAAACTG | 0.101
84 | CATAGCCC | -0.194
85 | AAATTATA | 0.175
86 | CATCTGGC | -0.0965
87 | CATTTCGA | 0.148
88 | GAGCGGGA | -0.0155
89 | TCATTGAA | -0.122
90 | CTGGAATC | -0.164
91 | GGGCACAC | -0.0905
92 | CACAGGCC | -0.0407
93 | ACCCTTTA | 0.203
94 | CAATATCG | 0.105
95 | ACGGCAAA | 0.107
96 | AGCCCCCC | -0.378
97 | GCTTAGGA | -0.132
98 | ATTATAAG | 0.118
99 | GAGGGCAC | -0.111
100 | CCATTACA | 0.183

Part of the list above, as tab-separated lines:
Row	Sequence	PBM E-score
97	GCTTAGGA	-0.132
98	ATTATAAG	0.118
99	GAGGGCAC	-0.111
100	CCATTACA	0.183

(continued)

Row | Sequence | PBM E-score
101 | CGGAGCCA | -0.19
102 | CATCGTGC | -0.0212
103 | ATCCCGCA | 0.08
104 | AACCGTCG | -0.151
105 | CCTATGCG | 0.0257
106 | GTCCTTGA | -0.221
107 | AAAAGCGA | 0.124
108 | ATGCCCCC | -0.222
109 | AACCCCCC | -0.386
110 | CTAACTGC | -0.0704
111 | CGCAGAGC | -0.0583
112 | GCATCTTA | 0.199
113 | ACCTACAG | 0.169
114 | CTCCGTGA | -0.0834
115 | GTACTAAC | 0.0447
116 | CATCAAGG | -0.126
117 | GTCGCTGA | -0.0768
118 | GACCACAA | -0.0922
119 | AATGGTAG | 0.151
120 | CCAATTAC | 0.0536
121 | ACATACAG | 0.0964
122 | GAGACTAC | -0.116
123 | AAGACTGA | -0.0531
124 | CCGAAAAC | 0.0713
125 | CCCTTGAA | 0.166

Fetched one by one from above (3):
Row | Sequence | PBM E-score
101 | CGGAGCCA | -0.19
110 | CTAACTGC | -0.0704
108 | ATGCCCCC | -0.222

(next part)

Row | Sequence | PBM E-score
126 | ATCCACCG | -0.0309
127 | TAAGGAGA | -0.0683
128 | ACCGCTAT | -0.035
129 | CCACCTGG | -0.215
130 | ATTTGTGC | 0.0437
131 | CGTGGTAA | -0.134
132 | ATGTTTCG | 0.0942
133 | AGAGCCTG | -0.243
134 | GCAATGCA | 0.134
135 | ACTGGTTG | 0.113
136 | ATCAACGG | 0.0274
137 | CCTATCAG | -0.0557
138 | AGCCGATC | 0.129
139 | CAGATACC | -0.0393
140 | GAAAATGC | 0.0631
141 | AGTCAGAC | -0.0122
142 | AACCCCTA | 0.25
143 | GCCAGCGC | -0.133
144 | ACTCGTAG | -0.0129
145 | AGACCGCG | 0.063
146 | ACAATTAC | 0.103
147 | TCTAAGAA | 0.0944
148 | ATACTTGA | -0.105
149 | AGAGATAG | -0.042
150 | GCCGGGCA | -0.161

Row | Sequence | PBM E-score
151 | AAGGTACG | 0.00371
152 | ACTTTGGG | 0.0184
153 | GTGAATGA | 0.0214
154 | CAGACTGC | -0.142
155 | ACGTTTAC | -0.0273
156 | ATTCCCGA | -0.0402
157 | AATTAAAA | 0.126
158 | CATACACA | -0.0317
159 | TGTTTTAA | 0.078
160 | CGAATGGA | 0.141
161 | AATGAATG | 0.13
162 | CTTAGAAC | 0.0319
163 | CATTAGAG | 0.06
164 | CCTCGGTC | -0.222
165 | CTAAAACA | -0.0868
166 | AGACTCAA | -0.0795
167 | ATGTCGAA | 0.147
168 | ACCCACCA | 0.125
169 | CATCCGGA | -0.0711
170 | TACACTCA | 0.109
171 | GGGGCGGA | -0.138
172 | AGTAGTCC | 0.0411
173 | ACCACGAT | 0.192
174 | GCTCGTGA | -0.214
175 | AATTCTTC | 0.0503

Row | Sequence | PBM E-score
176 | CTCTAGTA | -0.194
177 | CTCTAACA | -0.0417
178 | CTGAAGGA | -0.0763
179 | CATTCTGG | -0.0394
180 | AAGTGGCG | 0.0544
181 | CGATATGC | 0.0739
182 | GGTTCTAA | 0.0104
183 | CATTACAC | 0.104
184 | CCTCTTTC | -0.184
185 | GCGTGAGC | 0.142
186 | CAGTTTGG | -0.114
187 | GTCCACCA | -0.0195
188 | ATCCAGGA | -0.0938
189 | CACTACGC | -0.241
190 | GAGCAAAA | -0.0339
191 | CTCCCTCC | -0.122
192 | CAACTGCG | -0.0485
193 | TGACTACA | -0.154
194 | AACCATAC | -0.0969
195 | ACATTCGG | -0.0241
196 | GAACAGCC | -0.0894
197 | CAGGTAGG | -0.0897
198 | AGAGTCAC | -0.0604
199 | ACTAGTAA | 0.036
200 | CACTTGGA | 0.0538

Row | Sequence | PBM E-score
201 | AGGCCCTA | -0.021
202 | AGATACTA | 0.0761
203 | GACTGAAA | 0.0848
204 | AGCCATCA | -0.00157
205 | CGAAAACC | 0.065
206 | CGTTAACC | 0.0372
207 | AATATTAT | 0.219
208 | TCTAGGAA | -0.126
209 | GAGAAAGA | 0.105
210 | CTAAGTCA | -0.11
211 | GGTTGGCA | -0.0674
212 | CATTCGTC | 0.138
213 | AATTCGCC | 0.167
214 | GCGGGCAA | 0.0596
215 | ATAGCTGC | 0.085
216 | CCCGAGAG | -0.356
217 | CCCAACTA | 0.174
218 | CTACGTGA | -0.172
219 | ATGATCCA | -0.114
